Paper PMC8223750

Target: mitochondrial antiviral signalling (MAVS) protein (cattle (endogenous in bovine bladder mucosa))
Assay: co-IP; 1 mg total protein extract (RIPA buffer) of healthy and diseased bovine bladder; anti-MAVS antibody, Protein A/G-Plus Agarose overnight at 4°C, four washes in lysis buffer; Western blot of the immunoprecipitates

B1: Sec13 (protein, UniProt Q3ZCC9 1-322)
chain: MVSVINTVDTSHEDMIHDAQMDYYGTRLATCSSDRSVKIFDVRNGGQILVADLRGHEGPVWQVAWAHPMYGNILASCSYDRKVIIWKEENGTWEKTHEHTGHDSSVNSVCWAPHDYGLILACGSSDGAISLLTYTGLGQWEVKKINNAHTIGCNAVSWAPAVVPGSLIDQPSGQKPNYIKKFASGGCDNLIKLWKEEEDGQWKEEQKLEAHSDWVRDVAWAPSIGLPTSTIASCSQDGRVFVWTCDDASGNTWSPKLLHKFNDVVWHVSWSITANILAVSGGDNKVTLWKESVDGQWVCISDVNKGQGPVSTSVTEGQQNDQ
With B1 the binding was “binds”.

No constants are given. Whether binding was seen depends on the method and setting. Binding seen in cells or lysates may run through a third protein. Binding can be weak; no strength is given.
